PubChem BioAssay AID504808 | Drosophila RNAi Screening Center | 2011
Test: 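Chromatin factors that keep E2F targets switched off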 (primary screen). Cells: Drosophila S2 cells. Knock-down reagent: long dsRNA against Drosophila genes. Read-out: 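Dual luciferase plate measurements; E2F-specific signal taken as firefly over Renilla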. Scale: E2F firefly: higher = more E2F reporter activity; Renilla normaliser: higher = more normaliser reporter signal. Rule for the call: 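Called active if the normalised E2F reporter went up by over 50%; the cutoff is arbitrary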.
The screen tested about 21,000 reagents; shown is a random part of those that have a named target and a result. Over the whole deposit, 18 (0.084%) got an active call. 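Raw counts without plate normalisation, one of two replicates; the ratio scores behind the calls were not deposited.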 Reagents against one gene are numbered here. A plus sign joins genes that one reagent is predicted to hit. Not given: the amount of reagent, the time to read-out.

| target gene | dsRNA no. | E2F firefly, rep 1 | Renilla normaliser, rep 1 | Call |
| --- | --- | --- | --- | --- |
| CG7275 | 1 | 63477 | 3496 | inactive |
| CG13725 | 1 | 51507 | 2640 | inactive |
| Grl62a (Gustatory receptor-like 62a) | 1 | 1.24e5 | 4646 | inactive |
| CG15385 | 1 | 1.69e5 | 7785 | inactive |
| CG5554 | 1 | 87407 | 4261 | inactive |
| CG8578 | 1 | 7516 | 748 | inactive |
| Nulp1 (Nuclear localized protein 1) | 1 | 80621 | 34 | inactive |
| Or83c (Odorant receptor 83c) | 1 | 1.24e5 | 6450 | inactive |
| CG7031 | 1 | 50166 | 4075 | inactive |
| CG4115 | 1 | 1.91e5 | 6273 | inactive |
| CG31233 | 1 | 1.29e5 | 7185 | inactive |
| Vps53 (Vacuolar protein sorting 53) | 1 | 82492 | 3468 | inactive |
| GstD11 (Glutathione S transferase D11) | 1 | 1.55e5 | 6691 | inactive |
| Map60 (Microtubule-associated protein 60) | 1 | 3075 | 190 | inactive |
| CG8191 + CG12379 | 1 | 1.63e5 | 6254 | inactive |
| Cul2 (Cullin 2) | 1 | 82683 | 4212 | inactive |
| Sodq (Sodesque) | 1 | 1.07e5 | 5952 | inactive |
| CG9636 | 1 | 78233 | 3859 | inactive |
| CG12496 | 1 | 1.51e5 | 6755 | inactive |
| CG7963 | 1 | 1.39e5 | 5880 | inactive |
| CG13110 | 1 | 1.52e5 | 4925 | inactive |
| CG2889 | 1 | 1.29e5 | 5531 | inactive |
| Ldsdh1 (Lipid droplet subset dehydrogenase 1) | 1 | 90560 | 4828 | inactive |
| CG12104 | 1 | 71054 | 3347 | inactive |
| Osi10b (Osiris 10b) | 1 | 1.33e5 | 5173 | inactive |
| Ir52a (Ionotropic receptor 52a) | 1 | 1.03e5 | 4153 | inactive |
| Or22a (Odorant receptor 22a) | 1 | 1.61e5 | 6373 | inactive |
| CG43328 | 1 | 1.62e5 | 6423 | inactive |
| CG42335 | 1 | 1.46e5 | 7512 | inactive |
| CG42335 | 2 | 1.31e5 | 6895 | inactive |
| rno (rhinoceros) | 1 | 96213 | 3789 | inactive |
| cv-c (crossveinless c) | 1 | 1.10e5 | 5778 | inactive |
| cv-c (crossveinless c) | 2 | 1.18e5 | 6222 | inactive |
| cv-c (crossveinless c) | 3 | 70692 | 5303 | inactive |
| cv-c (crossveinless c) | 4 | 1.17e5 | 6073 | inactive |
| cv-c (crossveinless c) | 5 | 91099 | 4649 | inactive |
| cv-c (crossveinless c) | 6 | 1.04e5 | 6428 | inactive |

Entries listed so far whose target name begins with O or o:
| target gene | dsRNA no. | E2F firefly, rep 1 | Renilla normaliser, rep 1 | Call |
| --- | --- | --- | --- | --- |
| Or83c (Odorant receptor 83c) | 1 | 1.24e5 | 6450 | inactive |
| Osi10b (Osiris 10b) | 1 | 1.33e5 | 5173 | inactive |
| Or22a (Odorant receptor 22a) | 1 | 1.61e5 | 6373 | inactive |

Further reagents:
| target gene | dsRNA no. | E2F firefly, rep 1 | Renilla normaliser, rep 1 | Call |
| --- | --- | --- | --- | --- |
| bt (bent) | 1 | 1830 | 880 | inactive |
| bt (bent) | 2 | 1412 | 1024 | inactive |
| AttA (Attacin-A) | 1 | 2961 | 207 | inactive |
| CG8774 | 1 | 74639 | 3045 | inactive |
| CYTB (retired record) | 1 | 1.34e5 | 4891 | inactive |
| Jon99Fii + Jon99Cii + Jon99Ciii + 1 more | 1 | 1.36e5 | 6276 | inactive |
| CG18367 | 1 | 1.55e5 | 4835 | inactive |
| Gr32a (Gustatory receptor 32a) | 1 | 1.58e5 | 5762 | inactive |
| CG14253 | 1 | 1.30e5 | 5893 | inactive |
| Iris | 1 | 81183 | 3500 | inactive |
| Pi4KIIIalpha (Phosphatidylinositol 4-kinase III alpha) | 1 | 1.18e5 | 5843 | inactive |
| Nup160 + RfC38 | 1 | 71832 | 3495 | inactive |
| RpS18 (Ribosomal protein S18) | 1 | 83005 | 4551 | inactive |
| ZnT77C (Zinc transporter 77C) | 1 | 1.41e5 | 6228 | inactive |
| ZnT77C (Zinc transporter 77C) | 2 | 1.41e5 | 6940 | inactive |
| Sptz (Spastizin) | 1 | 1.39e5 | 6760 | inactive |
| acj6 (abnormal chemosensory jump 6) | 1 | 8471 | 824 | inactive |
| Dbx | 1 | 91113 | 3784 | inactive |
| Dbx | 2 | 91217 | 4261 | inactive |
| Dbx | 3 | 99712 | 4257 | inactive |
